Source: publication PMC7819943, “Rice protein-binding microarrays: a tool to detect cis-acting elements near promoter regions in rice”
Some of the results follow.

Biological target: T1, OsSMF1 (Oryza sativa, UniProt Q6ZLB0 1-436)
T1 sequence: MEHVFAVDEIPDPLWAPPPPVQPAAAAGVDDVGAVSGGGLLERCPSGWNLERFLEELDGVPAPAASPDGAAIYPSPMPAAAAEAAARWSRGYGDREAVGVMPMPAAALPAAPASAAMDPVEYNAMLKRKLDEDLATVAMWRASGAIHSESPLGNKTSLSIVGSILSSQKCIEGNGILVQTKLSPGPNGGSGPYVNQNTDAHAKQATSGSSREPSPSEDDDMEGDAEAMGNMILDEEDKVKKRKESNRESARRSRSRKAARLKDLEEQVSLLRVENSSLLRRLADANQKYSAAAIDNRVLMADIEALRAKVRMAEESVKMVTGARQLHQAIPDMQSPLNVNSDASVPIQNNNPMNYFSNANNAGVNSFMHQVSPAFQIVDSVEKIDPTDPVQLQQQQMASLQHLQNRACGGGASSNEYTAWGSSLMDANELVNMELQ
Assay: protein-binding microarray (RPBM); PBS, 2% BSA, 51.3 ng/ul salmon testes DNA, 50 uM zinc acetate, 200 nM TF, 25 C, 1 h; high values mean tight binding
Settings: protein: recombinant; tags: N-terminal polyhistidine and DsRed monomer fusion (pET32a); chain copies: 2; label: CyDye5-dUTP incorporated in the synthesized complementary strand; 3' TTTTT single-stranded linker to array surface; dsDNA, one strand shown
Outline: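 Binding signal is reported as fluorescence intensity per feature (arbitrary units) from an Axon 4000B scanner. Incubation used 200 nM of each Ni–NTA-purified, N-terminally polyhistidine- and DsRed-fused transcription factor from E. coli BL21-CodonPlus on a double-stranded custom Agilent array for 1 h at 25 °C, with 50 µM zinc acetate in the buffer, followed by washing.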

In order of falling binding signal:
1. CCACGAACAGCTACACGTCTCCTTCTCCTTCTTCGATTTCCGGAGTCACCTAGTGCAG  37400 fluorescence intensity (a.u.)
2. TGACACACCCCTACAAGTTTAAATACTGCACGTGCACTTTCGGAGTCACCTAGTGCAG  36300 fluorescence intensity (a.u.)
3. CTTTAACATCCGTCCCAGAAGAATAACACTGCTCGCAAAACGGAGTCACCTAGTGCAG  36100 fluorescence intensity (a.u.)
4. TTCAAACAAGTGAATATCATATATTTTAATAAGCAAACAACGGAGTCACCTAGTGCAG  32300 fluorescence intensity (a.u.)
5. AGTTGGTGAACTATAAGGTAGATAGATGTAAAAGAGAAACCGGAGTCACCTAGTGCAG  31800 fluorescence intensity (a.u.)
6. GTGGGGCAGGATCAAGGACAAGTATCGGCGGATGGTGCCGCGGAGTCACCTAGTGCAG  23500 fluorescence intensity (a.u.)
7. TCTGCCACTTTCCGCATGCTGTATCCACGTCACCTCCAATCGGAGTCACCTAGTGCAG  21100 fluorescence intensity (a.u.)
8. GCTATAAATCTGTAGTCTTCTCTCTCATCTTTTATCTTCTCGGAGTCACCTAGTGCAG  19000 fluorescence intensity (a.u.)
9. CAGGTGGGCCCTGCTCTCCCACGTCAGCATCACTCCAAGTCGGAGTCACCTAGTGCAG  14900 fluorescence intensity (a.u.)
10. GCCAGCATGGCTGGCGCCCTCCTCCTGCCACGTCGGTTCGCGGAGTCACCTAGTGCAG  13700 fluorescence intensity (a.u.)
11. TCTGCAATTTGCACGTGGCACTATGACCAAGTGTGATGAGCGGAGTCACCTAGTGCAG  10600 fluorescence intensity (a.u.)
12. TGTGGGCCCGGAATAGGTGGGACCCACACGTCAGTGAAACCGGAGTCACCTAGTGCAG  6630 fluorescence intensity (a.u.)
13. CATGAGTCCCACATTGACTCAGCTTTGACATGTTAGCTAACGGAGTCACCTAGTGCAG  6460 fluorescence intensity (a.u.)
14. TTCTACCTGAGAAGAGAGCCCAGTTCTCCGCTACAATTCCCGGAGTCACCTAGTGCAG  6170 fluorescence intensity (a.u.)
15. GCTCAGAGTCAGACGCGTCGCCTTGCGTGGCCCAGTTGCCCGGAGTCACCTAGTGCAG  5490 fluorescence intensity (a.u.)
16. AGCTCATGACCAGCGCGCACCGCCTTGTCAGCCTGTGTTTCGGAGTCACCTAGTGCAG  5420 fluorescence intensity (a.u.)
17. AATTTCGAACTTAATTAGCACGTGGATTAATTAGTTGGCACGGAGTCACCTAGTGCAG  5150 fluorescence intensity (a.u.)
18. GGGTCGTCGTCATCGCCGTCTTCACTCTTCACGCCACACTCGGAGTCACCTAGTGCAG  5020 fluorescence intensity (a.u.)
19. TATTTACGTTATTAGTTTCAGATATATGACTCGACGATCCCGGAGTCACCTAGTGCAG  4750 fluorescence intensity (a.u.)
20. TGCAGACCATTTTGTGCGTGCGTGCGTGTGGCTAGCCCGTCGGAGTCACCTAGTGCAG  4470 fluorescence intensity (a.u.)
21. ACGGTGCCAGGCAGACGTGGCTGCGCGATGGGGAGGCGGCCGGAGTCACCTAGTGCAG  4380 fluorescence intensity (a.u.)
22. ACTGGCTCCACACGACGTCAGCGACGGCTGGTTCAGCGAGCGGAGTCACCTAGTGCAG  4300 fluorescence intensity (a.u.)
23. AGTTCAGATCTTTCTCTCATTTACAAATAACCTAAGCTGCCGGAGTCACCTAGTGCAG  4080 fluorescence intensity (a.u.)
24. CGCCCAGGACGTCATGCCGGAGCTGGCCATGGTCACCGCGCGGAGTCACCTAGTGCAG  4070 fluorescence intensity (a.u.)
25. CAGGTAACCATACTACTGAACAGAACTTTATGACCATTTTCGGAGTCACCTAGTGCAG  3990 fluorescence intensity (a.u.)
26. TATGTTGTAATATTTGCACGTGTGAGCTTGCTTGTTAAGTCGGAGTCACCTAGTGCAG  3980 fluorescence intensity (a.u.)
27. GAAGAAAGTGGCGAGTTGTCACCAGCAGTAGCTTCAACGACGGAGTCACCTAGTGCAG  3960 fluorescence intensity (a.u.)
28. ACTGAAAAGTTGCGTGTGTATGACAGGTTGATGTGATAGACGGAGTCACCTAGTGCAG  3820 fluorescence intensity (a.u.)
29. ACACTTAATCCATGTGATATCCTTAACACTTAATCCATGTCGGAGTCACCTAGTGCAG  3810 fluorescence intensity (a.u.)
30. GATACAATCCGTGTAGTCTTTGTCATTTCCATATAGAACTCGGAGTCACCTAGTGCAG  3800 fluorescence intensity (a.u.)
31. CCTTGCTCTAAAAGATGAGCAAACGTAGCATGACGACAGCCGGAGTCACCTAGTGCAG  3680 fluorescence intensity (a.u.)
32. CCGTCTTTTCTTTCTTCACGCCAGCGTCGCCGTGGTCAAGCGGAGTCACCTAGTGCAG  3650 fluorescence intensity (a.u.)
33. TACGGTGCTACTGCTGTGTCAGTTTGTCTGGTGTTTTCGGCGGAGTCACCTAGTGCAG  3480 fluorescence intensity (a.u.)
34. ACCACCCGTGGGCCCACCTCGCCAGTCCAAACCAACGGCGCGGAGTCACCTAGTGCAG  3430 fluorescence intensity (a.u.)
35. CCCACACTGCAAACACCTTAATTAGTACTACTACTAGTCACGGAGTCACCTAGTGCAG  3430 fluorescence intensity (a.u.)
36. CCGCCGCCGCGGCCGCCGCCGCGCTCACCGGCAGGAGCGACGGAGTCACCTAGTGCAG  3390 fluorescence intensity (a.u.)
37. AACCCTCAATGATGACAATATATCTTACTTAAAGAAAAGGCGGAGTCACCTAGTGCAG  3380 fluorescence intensity (a.u.)
38. AAACGCCAACTGCAAGAACACCCAACACCAAACAAAGACCCGGAGTCACCTAGTGCAG  3220 fluorescence intensity (a.u.)
39. TTTCAGTTAAGTCGGTGCGGTACAAACAGCTAAGCACGTACGGAGTCACCTAGTGCAG  3220 fluorescence intensity (a.u.)
40. TTTGCACAAGGTAGTAGTGTGTGGCAGCAAAGGATCCGAGCGGAGTCACCTAGTGCAG  3200 fluorescence intensity (a.u.)
41. GGCCTGCAGCGGGAGCCGATTGTTCTGTGACGCGTGGAGGCGGAGTCACCTAGTGCAG  3170 fluorescence intensity (a.u.)
42. GCCCTCCTCGGCGTACCCCTCCCCTGCACCTGCGCCCGCCCGGAGTCACCTAGTGCAG  3140 fluorescence intensity (a.u.)
